Structures are written as SMILES. The list shows only some results of the screen, not a fair sample: it is rich in T/C values a quarter to a half above the control, in often repeated tests (any T/C) and in doses without a T/C. Other doses and runs of a compound stand elsewhere. T/C is the treated group as % of the vehicle group. Schedules are NCI's codes, read here as Q, the interval in days (D) or hours (H), X, the number of doses. Some T/C values carry the count of animals alive at the toxicity check (mostly the fifth day); where none is given, no animal had died by that day. Some doses have a count of surviving animals in place of a T/C: the source files T/C as zero there, which appears to mark a toxic dose or a test without result, not a measured value. Counts of survivors are from the toxicity check (mostly the fifth day) where no day follows; animals may have died later. Some entries were tested several times; the results are listed from low to high.

The test system of the test is nude mice, HT29 intrarenal xenograft, tumor weight T/C. Nature of the test: NCI In Vivo Anticancer Drug Screen. Data for tumor model HT29;CX-1 Human Adenocarcinoma (MER+) (intrarenal inoculation) in NU/NU Swiss (nude) mice. As to conditions: T/C endpoint: mean tumor weight change, higher T/C = larger tumour. The method in brief: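 Mice with transplanted tumors are dosed with compound while controls get vehicle only. Survival or tumor burden is then assessed per group, and the treated value is expressed relative to control.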

Where [1] appears, read: dose: 200.0 mg/kg/injection, schedule: Q01DX010 (sc), vehicle: saline.
The mark [2] stands for this setting: dose: 800.0 mg/kg/injection, schedule: Q04DX004 (sc), vehicle: saline with Tween-80, evaluated on day 15.
[3] abbreviates: dose: 100.0 mg/kg/injection, schedule: Q01DX010 (sc), vehicle: saline with Tween-80, evaluated on day 11.

With `CN(CO)c1nc(N(C)CO)nc(N(C)CO)n1`, the survivor count (dose: 25.0 mg/kg/injection, schedule: Q01DX008 (ip), vehicle: saline) is given as 0 of 5; the survivor count (dose: 50.0 mg/kg/injection, schedule: Q01DX008 (ip), vehicle: saline) is given as 0 of 5; the survivor count (dose: 100.0 mg/kg/injection, schedule: Q01DX008 (ip), vehicle: saline) was 0 of 5; the survivor count (dose: 200.0 mg/kg/injection, schedule: Q01DX008 (ip), vehicle: saline) is listed as 0 of 5; the survivor count under setting [1] was 0 of 3 on day 11 and 0 of 6 on day 11; the survivor count (dose: 200.0 mg/kg/injection, schedule: Q01DX010 (sc), vehicle: suspension in saline) was 0 of 6 on day 11 and 3 of 6 on day 11. In addition, the survivor count (dose: 400.0 mg/kg/injection, schedule: Q01DX010 (sc), vehicle: suspension in saline) is reported as 0 of 6 on day 11. As to `CCN(C)N=Nc1ccc(C(N)=O)cc1`, the survivor count runs as follows: (dose: 300.0 mg/kg/injection, schedule: Q04DX004 (sc), vehicle: Klucel (hydroxypropylcellulose) (HPC)) 1 of 6 on day 15; (dose: 600.0 mg/kg/injection, schedule: Q04DX004 (sc), vehicle: Klucel (hydroxypropylcellulose) (HPC)) 0 of 6 on day 15. With `CCOC(=O)C1=C(C#N)C2(CCC(OCc3ccccc3)CC2)C(=O)O1` (stereo not given), the T/C (dose: 200.0 mg/kg/injection, schedule: Q04DX004 (sc), vehicle: suspension in saline, evaluated on day 15) is 133 % of control and the T/C (dose: 400.0 mg/kg/injection, schedule: Q04DX004 (sc), vehicle: suspension in saline, evaluated on day 15) is 143 % of control. Regarding `COc1ccc2c(c1)CCn1c(C)c(COC(=O)NC(C)C)c(COC(=O)NC(C)C)c1-2`, the survivor count is given as 1 of 6 on day 15 (dose: 1200.0 mg/kg/injection, schedule: Q04DX004 (sc), vehicle: distilled water + Tween-80) and 0 of 6 on day 15 (dose: 2400.0 mg/kg/injection, schedule: Q04DX004 (sc), vehicle: distilled water + Tween-80). As to `C=C1C(=O)O[C@@H]2[C@H](O)[C@@H](C)[C@@H]3C=CC(=O)[C@@]3(C)[C@H](OC(=O)C=C(C)C)[C@H]12`, the survivor count (dose: 75.0 mg/kg/injection, schedule: Q04DX004 (sc), vehicle: saline with Tween-80) was 1 of 6 on day 15. In the case of `COc1ccc(OC)c(Cc2cnc3nc(N)nc(N)c3c2C)c1`, the survivor count runs as follows: (dose: 600.0 mg/kg/injection, schedule: Q04DX004 (sc), vehicle: water) 2 of 6 on day 15; (dose: 1200.0 mg/kg/injection, schedule: Q04DX004 (sc), vehicle: water) 0 of 6 on day 15. For the molecule `CC1=CC2c3cccc4[nH]cc(c34)CC2N(C)C1` (stereo not given), where the note is “dose: 100.0 mg/kg/injection, schedule: Q04DX004 (sc), vehicle: suspension in saline”, the survivor count is 2 of 6 on day 15. With `OCC1OC(n2cnc3cc(Cl)c(Cl)cc32)C(O)C1O` (stereo not given), where the note is “dose: 2400.0 mg/kg/injection, schedule: Q04DX004 (sc), vehicle: saline with Tween-80”, the survivor count is given as 1 of 6 on day 15. Consider `CC[n+]1c(-c2ccccc2)c2cc(N)ccc2c2ccc(N)cc21`, for which the survivor count (dose: 120.0 mg/kg/injection, schedule: Q04DX004 (sc), vehicle: saline) is on record as 0 of 6 on day 15.

Turning to `CCOC(=O)Nc1cc2c(c(N)n1)N=C(c1ccccc1)CN2`, the survivor count by setting is: (dose: 50.0 mg/kg/injection, schedule: Q04DX004 (sc), vehicle: saline with Tween-80) 2 of 6 on day 15; (dose: 100.0 mg/kg/injection, schedule: Q04DX004 (sc), vehicle: saline with Tween-80) 2 of 6 on day 15. Consider `O=NN(CCCl)C(=O)Oc1cc(Cl)c(Cl)cc1Cl`, for which, for the setting “dose: 75.0 mg/kg/injection, schedule: Q04DX004 (sc), vehicle: Klucel (hydroxypropylcellulose) (HPC), evaluated on day 15”, the T/C was 132 % of control. `Oc1cc2c3c(c1)c1cc4c(cc1c[n+]3CC2)OCO4`: under “dose: 800.0 mg/kg/injection, schedule: Q04DX004 (sc), vehicle: water”, the survivor count is reported as 2 of 6 on day 15. For the molecule `O=C(O)C1CC1.[Ag]`, the T/C (dose: 300.0 mg/kg/injection, schedule: Q04DX004 (sc), vehicle: saline with Tween-80, evaluated on day 15) is 134 % of control. Moreover, for the setting “dose: 600.0 mg/kg/injection, schedule: Q04DX004 (sc), vehicle: saline with Tween-80”, the survivor count was 0 of 5 on day 15. For `C=C(C)C(=NC(C)(C)C)Nc1ccccc1`, the survivor count (dose: 200.0 mg/kg/injection, schedule: Q04DX004 (sc), vehicle: saline with Tween-80) is listed as 1 of 6 on day 15; the survivor count (dose: 400.0 mg/kg/injection, schedule: Q04DX004 (sc), vehicle: saline with Tween-80) is 1 of 6 on day 15; the survivor count (dose: 800.0 mg/kg/injection, schedule: Q04DX004 (sc), vehicle: saline with Tween-80) is on record as 0 of 6 on day 15. In the case of `C[PH+](C)C.C[PH+](C)C.[Au]`, the survivor count (dose: 40.0 mg/kg/injection, schedule: Q04DX004 (sc), vehicle: saline) was 0 of 6 on day 15. On to `CCCCCCCC(=O)N/N=C(\CO)[C@]1(O)Cc2c(O)c3c(c(O)c2[C@@H](OC2CC(N)C(O)C(C)O2)C1)C(=O)c1c(OC)cccc1C3=O` (stereo not given in full), for which, where the note is “dose: 125.0 mg/kg/injection, schedule: Q04DX004 (sc), vehicle: water”, the survivor count was 1 of 3 on day 15.

For the molecule `CC(C#N)(C#N)N=Nc1ccc(Cl)cc1Cl`, the T/C runs as follows: (dose: 400.0 mg/kg/injection, schedule: Q04DX004 (sc), vehicle: saline with Tween-80, evaluated on day 15) 129 % of control; under setting [2], 129 % of control.

As to `C[CH2][Ge]1([CH2]C)[CH2]CC2(CCN(CCCN(C)C)C2)C[CH2]1`, the survivor count is reported as 0 of 3 on day 20 (dose: 100.0 mg/kg/injection, schedule: Q01DX010 (sc), vehicle: saline); 0 of 3 on day 20 under setting [1]; 0 of 3 on day 20 (dose: 400.0 mg/kg/injection, schedule: Q01DX010 (sc), vehicle: saline). As for `CN(C)N=Nc1cn[nH]c1C(N)=O`, under “dose: 2400.0 mg/kg/injection, schedule: Q04DX004 (sc), vehicle: suspension in saline”, the survivor count is listed as 0 of 6 on day 15.

On to `COc1cccc2c1C(=O)c1c(O)c3c(c(O)c1C2=O)CC(O)(C(=O)CO)CC3OC1CC(N)C(O)C(C)O1` (stereo not given), for which the T/C was 133 % of control (dose: 12.0 mg/kg/injection, schedule: Q01DX010 (sc), vehicle: saline, evaluated on day 11) and 140 % of control (dose: 24.0 mg/kg/injection, schedule: Q01DX010 (sc), vehicle: saline, evaluated on day 11). For the same molecule, the survivor count (dose: 96.0 mg/kg/injection, schedule: Q01DX010 (sc), vehicle: saline) is on record as 0 of 3 on day 11.

In the case of `CC1C=NNC1=O` (stereo not given), the T/C under setting [3] is 133 % of control. Turning to `c1cc(OCC2CO2)ccc1OCC1CO1` (stereo not given), the T/C under setting [2] is 133 % of control and the T/C (dose: 1600.0 mg/kg/injection, schedule: Q04DX004 (sc), vehicle: saline with Tween-80, evaluated on day 15) was 143 % of control [5 of 6 alive on day 15]. `COc1cccc2c1C(=O)c1c(O)c3c(c(O)c1C2=O)C[C@@](O)(C(=O)COC(=O)c1cccnc1)C[C@@H]3OC1CC(N)C(O)C(C)O1` (stereo not given in full): the survivor count is 0 of 6 on day 15 (dose: 24.0 mg/kg/injection, schedule: Q04DX004 (sc), vehicle: saline) and 0 of 6 on day 15 (dose: 48.0 mg/kg/injection, schedule: Q04DX004 (sc), vehicle: saline). Consider `CC1=C(/C=C/C(C)=C/C=C/C(C)=C/C(=O)O)C(C)(C)CCC1`, for which, under setting [3], the T/C was 132 % of control [2 of 2 alive on day 11].
